Test results taken from PMC11818346.
These are yes or no findings as the source states them, for the method shown. Binding seen in cells or lysates may run through a third protein. Some results given as binding are weak or reduced against the parent protein; the word gives no strength. Sequences can lack the tags named with a protein.

Protein sequences, listed by entry. Tags and fused reporters are not part of them. Residues count along the entry.
UniProt P22366: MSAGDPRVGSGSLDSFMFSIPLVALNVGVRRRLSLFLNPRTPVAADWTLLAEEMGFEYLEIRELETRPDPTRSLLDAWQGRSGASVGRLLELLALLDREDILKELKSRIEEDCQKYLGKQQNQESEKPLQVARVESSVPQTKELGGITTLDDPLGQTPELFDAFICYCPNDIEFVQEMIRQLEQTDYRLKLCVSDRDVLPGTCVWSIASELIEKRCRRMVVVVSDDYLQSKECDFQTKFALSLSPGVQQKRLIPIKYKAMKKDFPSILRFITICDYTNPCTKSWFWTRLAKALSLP
UniProt Q9QUK6, residues 660-835: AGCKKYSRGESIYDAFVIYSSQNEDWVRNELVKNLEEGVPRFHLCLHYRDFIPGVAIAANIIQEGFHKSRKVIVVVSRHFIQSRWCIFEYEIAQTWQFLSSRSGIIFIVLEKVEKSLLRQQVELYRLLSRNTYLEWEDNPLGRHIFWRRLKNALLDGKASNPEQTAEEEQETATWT

How the values were obtained:
[1] = biological target: myeloid differentiation primary response gene 88 (MyD88), endogenous in mouse BMDMs (mouse (endogenous in BMDMs)) (UniProt P22366); experiment: co-IP; BMDMs with or without LPS (1 ug/mL, 15 min), lysed in RIPA buffer, precleared; immunoprecipitated with anti-MyD88 goat pAb; blotted with anti-P2X7, anti-MyD88 and anti-HA tag antibodies; wild-type, P2X7-CT2 Tg and anti-P2X7-scFv Tg BMDMs compared
[2] = biological target: TLR4-CT-Myc (mouse TLR4 C-terminal intracellular domain, amino acids 660-835) (mouse) (UniProt Q9QUK6); experiment: co-IP; lysates (RIPA) of separately transfected DO-11.10 cells mixed, 4 °C overnight; complexes taken with a Myc Tagged Protein Purification Kit; blotted with anti-HA and anti-Myc tag antibodies
[3] = biological target: TLR4-CT-Myc (mouse TLR4 C-terminal intracellular domain, amino acids 660-835) (mouse) (UniProt Q9QUK6); experiment: co-IP; as a3, lysates of HA-P2X7-CT2 and TLR4-CT-Myc cells mixed with or without lysate of anti-P2X7-scFv-His cells; anti-Myc precipitation; blotted with anti-HA, anti-Myc or anti-His tag antibody

| Binder | binding [1] | binding [2] | binding [3] |
| --- | --- | --- | --- |
| P2X7 (endogenous, mouse bone marrow-derived macrophages) (receptor, UniProt Q9Z1M0 1-595) MPACCSWNDVLQYETNKVTRIQSTNYGTVKWVLHMIVFSYISFALVSDKLYQRKEPVISSVHTKVKGIAEVTENVTEGGVTKLGHSIFDTADYTFPLQGNSFFVMTNYVKSEGQVQTLCPEYPRRGAQCSSDRRCKKGWMDPQSKGIQTGRCVPYDKTRKTCEVSAWCPTEEEKEAPRPALLRSAENFTVLIKNNIHFPGHNYTTRNILPTMNGSCTFHKTWDPQCSIFRLGDIFQEAGENFTEVAVQGGIMGIEIYWDCNLDSWSHHCRPRYSFRRLDDKNTDESFVPGYNFRYAKYYKENNVEKRTLIKAFGIRFDILVFGTGGKFDIIQLVVYIGSTLSYFGLATVCIDLLINTYSSAFCRSGVYPYCKCCEPCTVNEYYYRKKCESIMEPKPTLKYVSFVDEPHIRMVDQQLLGKSLQVVKGQEVPRPQMDFSDLSRLSLSLHDSPLTPGQSEEIQLLHEEVAPKSGDSPSWCQCGNCLPSRLPEQRRALEELCCRRKPGRCITTSKLFHKLVLSRDTLQLLLLYQDPLLVLGEEATNSRLRHRAYRCYATWRFGSQDMADFAILPSCCRWRIRKEFPKTEGQYSGFKYPY | binds | – | – |
| HA-P2X7-CT2 (mouse P2X7 C-terminal domain, amino acids 392-595), overexpressed in P2X7-CT2 Tg BMDMs (domain or fragment, UniProt Q9Z1M0 392-595) MEPKPTLKYVSFVDEPHIRMVDQQLLGKSLQVVKGQEVPRPQMDFSDLSRLSLSLHDSPLTPGQSEEIQLLHEEVAPKSGDSPSWCQCGNCLPSRLPEQRRALEELCCRRKPGRCITTSKLFHKLVLSRDTLQLLLLYQDPLLVLGEEATNSRLRHRAYRCYATWRFGSQDMADFAILPSCCRWRIRKEFPKTEGQYSGFKYPY | binds | – | – |
| HA-P2X7-CT2 (mouse P2X7 C-terminal domain, amino acids 392-595), from transfected DO-11.10 cells (domain or fragment, UniProt Q9Z1M0 392-595) MEPKPTLKYVSFVDEPHIRMVDQQLLGKSLQVVKGQEVPRPQMDFSDLSRLSLSLHDSPLTPGQSEEIQLLHEEVAPKSGDSPSWCQCGNCLPSRLPEQRRALEELCCRRKPGRCITTSKLFHKLVLSRDTLQLLLLYQDPLLVLGEEATNSRLRHRAYRCYATWRFGSQDMADFAILPSCCRWRIRKEFPKTEGQYSGFKYPY | – | binds | binds |
